Results are given in words; binding and its absence hold for the method and conditions named. In cells and extracts the contact can be indirect. Where a sequence is shown, tags or fusion partners need not be part of it.
Target: T1, LEF-11^HA (BmNPV LEF-11 with HA tag, from pIZ-LEF-11^HA) (Bombyx mori nucleopolyhedrovirus (BmNPV)) (UniProt O92404)
T1 sequence: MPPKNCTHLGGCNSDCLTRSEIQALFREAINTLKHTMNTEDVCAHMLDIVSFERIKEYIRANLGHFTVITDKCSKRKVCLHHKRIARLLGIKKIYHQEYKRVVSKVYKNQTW
Assay: co-IP

Sequences of proteins named here, by UniProt entry; tags and fusion partners are left off.
UniProt O92432: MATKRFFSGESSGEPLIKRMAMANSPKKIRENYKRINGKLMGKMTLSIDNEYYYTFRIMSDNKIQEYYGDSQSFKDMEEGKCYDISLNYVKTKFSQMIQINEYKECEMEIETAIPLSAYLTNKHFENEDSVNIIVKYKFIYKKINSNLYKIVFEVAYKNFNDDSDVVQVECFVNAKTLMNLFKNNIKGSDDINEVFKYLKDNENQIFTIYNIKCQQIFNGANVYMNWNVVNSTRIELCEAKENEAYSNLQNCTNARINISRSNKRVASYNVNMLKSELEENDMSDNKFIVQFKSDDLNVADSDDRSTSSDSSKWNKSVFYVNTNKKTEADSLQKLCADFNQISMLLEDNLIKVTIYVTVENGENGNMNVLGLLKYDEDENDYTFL
UniProt O92415: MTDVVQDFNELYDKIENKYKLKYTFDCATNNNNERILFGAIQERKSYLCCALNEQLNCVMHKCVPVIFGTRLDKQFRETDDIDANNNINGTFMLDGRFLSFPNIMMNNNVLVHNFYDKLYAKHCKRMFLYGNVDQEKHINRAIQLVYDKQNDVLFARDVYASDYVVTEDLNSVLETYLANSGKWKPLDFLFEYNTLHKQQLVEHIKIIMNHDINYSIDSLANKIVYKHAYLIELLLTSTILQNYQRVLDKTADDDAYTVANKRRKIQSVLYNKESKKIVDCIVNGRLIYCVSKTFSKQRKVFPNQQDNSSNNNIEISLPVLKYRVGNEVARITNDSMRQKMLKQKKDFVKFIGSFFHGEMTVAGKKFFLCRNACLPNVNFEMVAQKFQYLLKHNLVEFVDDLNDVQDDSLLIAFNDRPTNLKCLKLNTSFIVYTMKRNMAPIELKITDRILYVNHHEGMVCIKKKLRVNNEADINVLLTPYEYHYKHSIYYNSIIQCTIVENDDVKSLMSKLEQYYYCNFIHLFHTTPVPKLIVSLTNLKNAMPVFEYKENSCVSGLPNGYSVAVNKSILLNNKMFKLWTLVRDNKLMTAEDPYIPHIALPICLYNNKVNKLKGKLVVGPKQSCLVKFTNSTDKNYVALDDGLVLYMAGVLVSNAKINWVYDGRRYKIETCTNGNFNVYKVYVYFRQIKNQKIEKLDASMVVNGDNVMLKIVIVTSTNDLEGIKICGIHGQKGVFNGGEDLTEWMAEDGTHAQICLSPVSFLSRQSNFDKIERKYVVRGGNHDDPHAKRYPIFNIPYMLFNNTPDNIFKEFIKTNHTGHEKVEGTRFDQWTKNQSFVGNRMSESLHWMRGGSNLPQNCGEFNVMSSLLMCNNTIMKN

Substance | binding
LEF-3^FLAG (BmNPV LEF-3 with FLAG tag, from pIZ-LEF-3^FLAG) (from UniProt O92432 1-385) | no binding
LEF-8^FLAG (BmNPV LEF-8 with FLAG tag, from pIZ-LEF-8^FLAG) (from UniProt O92415 1-877) | no binding
